62 compounds from PubChem BioAssay AID2685 (National Center for Advancing Translational Sciences (NCATS), 2010) can be followed below.

This is one part of the list. Further columns of the screen follow, without active or inactive calls. The list favours compounds with an active or inconclusive main result. Words in brackets tell the shape of the fitted curve; partial curves, single points and poor fits give uncertain potencies.

The term AC50 denotes the midpoint of the concentration-response curve, whichever way the signal moves.

This test in a line: qHTS Assay for Lipid Storage Modulators in Drosophila S3 Cells.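 On cell number change: cells counted by Cell Tracker Red CMTPX staining in the red channel.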 The settings on record: BODIPY lipid droplet fluorescence, 18-24 h; for cell number change: measured here: cell count max response, cells fed with added oleic acid. In outline:
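Drosophila S3 cells got compounds at several concentrations plus oleic acid (400 uM solution). Laser-scanning cytometry with 488 nm excitation read lipid droplets at 500-530 nm and cells at 575-640 nm. Percent activity was relative to 20 uM Triacsin C.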

Setting [1] is: measured here: lipid fluorescence (Fed channel) AC50, cells fed with added oleic acid.
[2] abbreviates: measured here: cell number channel AC50, cells fed with added oleic acid.

Take `CCOc1cc(C(=O)Nc2ccc(C)cc2O)ccc1OCC(=O)N1CCOCC1`: the cell number change worked out at 21%. In the case of `CCC[C@H]1COCCS(=O)(=O)N1Cc1ccccc1`, the cell number change came to 16.5%. Also, the AC50 under setting [1] is 6.51 µM [rising, single point]. Take `COc1ccc(Cl)cc1NC(=O)NC1CCCCC1`: the cell number change was -3.01%. Consider `COc1ccc(-n2nc(C(=O)NCC(=O)NC3CCCC(C)C3C)c3ccccc3c2=O)c(OC)c1` (stereo not given), for which the cell number change was 177%. The AC50 under setting [2] was 29.1 µM [rising, single point]. In addition, under setting [1], the half-maximal activity concentration (AC50) was 29.1 µM [rising, single point]. For the compound `O=c1ccc2ccc(O[C@@H]3O[C@H](CO)[C@@H](O)[C@H](O)[C@H]3O)c(O)c2o1`, the cell number change was -26.2%. Also, under setting [2], the concentration at half-maximal activity (AC50) was 0.0058 µM [falling, full curve, poor fit]. In addition, the concentration at half-maximal activity (AC50) under setting [1] was 3.66 µM [rising, partial curve]. In the case of `Clc1ccccc1COc1ccccc1-c1nnco1`, the cell number change is -1.91%. As for `O=C1NC(c2ccc(F)cc2)Oc2ccccc21` (stereo not given), the cell number change was -9.45%. Besides, the AC50 under setting [1] is 0.164 µM [rising, full curve, poor fit]. As to `CCN(CC)S(=O)(=O)c1ccc(Cl)c(NC(=O)c2ccccc2C)c1`, the cell number change is -31.2%. The half-maximal activity concentration (AC50) under setting [1] was 20.6 µM [falling, partial curve, poor fit]. As to `Cc1sc(NC(=O)C2=COCCO2)nc1-c1ccc(Br)cc1`, the cell number change turned out to be 7.98%. Turning to `COc1ccc([N+](=O)[O-])cc1NC(=O)COC(=O)/C=C/c1ccco1`, the AC50 under setting [1] is 16.4 µM [rising, partial curve, poor fit]. On the same count and under the same terms, next, `O=C(C1CSC2(c3ccc(F)cc3)CCC(=O)N12)N1CCCCCC1` (stereo not given): 10.3 µM [falling, partial curve]. For `O=[N+]([O-])c1cc(-c2ccc(/C=N\n3cnnc3)o2)cc([N+](=O)[O-])c1`, the cell number change is -17.9%. The AC50 under setting [1] is 0.082 µM [falling, full curve, poor fit]. Regarding `COc1ccc(OC)c(/C=N/NC2=NS(=O)(=O)c3ccccc32)c1`, the cell number change was -15.3%. Turning to `CCOC(=O)CNC(=O)C(NC(=O)C1CCC(C)CC1)C(C)CC` (stereo not given), the cell number change was -21.5%. Further, the AC50 under setting [2] was 0.103 µM [falling, partial curve, poor fit]. Further, under setting [1], the AC50 was 1.03 µM [falling, full curve].

Turning to `COc1ccc(CC(=O)OCC(=O)NCc2ccccc2Cl)cc1`, the cell number change is -21%. For `CCN(CC(=O)Nc1ccc(C)c(S(=O)(=O)N2CCOCC2)c1)Cc1ccccc1`, the AC50 under setting [2] was 2.31 µM [rising, partial curve]. Consider `COc1cc2c(cc1OC)C(c1ccccc1)N(C(=O)c1ccco1)CC2` (stereo not given), for which the cell number change is -5.06%. Under setting [1], the AC50 is 6.51 µM [rising, single point]. Take `CC(=O)c1ccc(S(=O)(=O)N2CCCC2)cc1`: the cell number change was -30.8%. The AC50 under setting [2] was 18.4 µM [falling, single point]. Also, under setting [1], the AC50 is 29.1 µM [falling, single point]. As for `O=C(O)c1cccc(OCc2ccccc2Cl)c1`, the cell number change was -0.452%. The AC50 under setting [2] is 5.8 µM [falling, single point]. The AC50 under setting [1] was 6.51 µM [falling, single point]. With `O=C(CCC1COc2ccccc2O1)Nc1ccc(Cl)cn1` (stereo not given), the cell number change was -14.4%. Besides, under setting [1], the AC50 was 0.259 µM [falling, full curve, poor fit]. `COc1ccc(/C=N/OCC(=O)N2CCCC2)c(OC)c1`: the cell number change stood at 20.2%. Moreover, under setting [1], the AC50 was 23.1 µM [rising, single point].

In the case of `CCCNC(=O)c1ccc2c(=O)c(O)c(-c3ccsc3)[nH]c2c1`, the cell number change is -3.61%. Under setting [2], the AC50 was 6.51 µM [falling, single point]. As to `O=C(N/C(=C/c1cccs1)C(=O)N1CCOCC1)c1cccs1`, the cell number change was -30.4%.

On to `CN(Cc1ccccc1)C(=O)CSc1nc2ccccc2[nH]1`, for which the cell number change was 51.6%. Further, under setting [2], the AC50 is 29.1 µM [rising, single point]. Also, the half-maximal activity concentration (AC50) under setting [1] is 29.1 µM [rising, single point].

In the case of `Cc1c(Cl)cccc1NC(=O)COC(=O)c1c2c(nc3ccccc13)CCN(Cc1ccccc1)C2`, the cell number change was -11.9%. Take `CN(C(=O)c1ccc(NC(=O)Cc2ccc(NC(=O)C3CCCN(C(=O)C4CCC4)C3)cc2)cc1)C1CC1` (stereo not given): the cell number change is -39.2%. The AC50 under setting [2] was 29.1 µM [falling, single point]. In addition, under setting [1], the concentration at half-maximal activity (AC50) was 4.61 µM [falling, single point]. On to `Cc1cccnc1NC(=O)CCn1c(=O)oc2ccccc21`, for which the cell number change is -43.6%. In addition, the AC50 under setting [2] was 23.1 µM [falling, partial curve]. For the compound `Cc1c(NC(=O)CC2NC(=O)NC2=O)c(=O)n(-c2ccccc2)n1C` (stereo not given), the cell number change is -14%. Consider `CC(=O)Nc1ccc(/C(C)=N/Nc2nc(Nc3cccc4ccccc34)nc(N3CCOCC3)n2)cc1`, for which the cell number change is -12.4%. For the same compound, the AC50 under setting [1] was 29.1 µM [rising, single point]. Consider `COC(=O)C(c1ccccc1)N(Cc1cccc(CN(C(C(=O)OC)c2ccccc2)S(C)(=O)=O)c1)S(C)(=O)=O` (stereo not given), for which the cell number change turned out to be 5.83%. Besides, under setting [1], the AC50 is 29.1 µM [rising, single point].

Turning to `O=C(Nc1ccc2oc(-c3ccccc3)nc2c1)c1cc(-n2cnnc2)ccc1Cl`, the cell number change worked out at 23.6%. Also, the AC50 under setting [1] was 0.58 µM [rising, full curve, poor fit].

For `CCOc1ccccc1/C=C(\C#N)C1=CCCC1`, the cell number change was -38.1%. Under setting [2], the AC50 was 29.1 µM [falling, single point]. In the case of `O=C(CSc1nnc(-c2cccs2)n1-c1ccccc1)NCc1ccc2c(c1)OCO2`, the cell number change was determined as 2.37%. In addition, the AC50 under setting [1] is 0.82 µM [rising, full curve, poor fit].

As for `CC(=O)c1sc2nc(-c3ccc(C)cc3)c3c(c2c1N)CCCC3`, the cell number change stood at 2.42%. The AC50 under setting [1] was 1.64 µM [rising, partial curve]. As for `CCCCNC(=O)Nc1nc2ccc(CC)cc2s1`, the cell number change was determined as 26.1%. As to `Cc1ccccc1Cn1ccc(NC(=O)c2cnn3cccnc23)n1`, the cell number change was 12.6%. Consider `O=C(O)c1c2c(nc3ccccc13)-c1ccccc1CC2`, for which the cell number change is -21.9%. Moreover, under setting [1], the AC50 is 5.8 µM [falling, full curve, poor fit]. In the case of `COc1ccc(-c2onc(C)c2-c2ccc(C(=O)OC(C)C)o2)c(O)c1`, the cell number change is -50.1%. The AC50 under setting [2] was 16.4 µM [falling, single point]. In addition, the AC50 under setting [1] is 11.6 µM [falling, partial curve]. In the case of `COc1ccccc1N(CC(=O)NC1CCCC1)S(=O)(=O)c1ccc(C)cc1`, the cell number change was -9.66%.

`Clc1ccc(NCc2nncn2-c2ccccc2)cc1`: the cell number change turned out to be 22.3%. Besides, the AC50 under setting [1] was 23.1 µM [rising, single point]. `CC(=O)c1c[nH]c(C(=O)NCC2CCCO2)c1` (stereo not given): the cell number change was -84.8%. For the same compound, the AC50 under setting [2] was 20.6 µM [falling, partial curve]. Moreover, the AC50 under setting [1] was 23.1 µM [falling, partial curve]. In the case of `O=C(CN1C(=O)C2CCCCN2C(=O)c2ccccc21)Nc1ccc(F)cc1` (stereo not given), the cell number change was -10.6%. Consider `COc1cccc(NC(=O)NC2CC(=O)N(c3ccc4c(c3)OCCO4)C2)c1` (stereo not given), for which the cell number change was found to be 8.84%. Take `O=C(O)c1cccnc1Cl`: the cell number change is 4.69%. Turning to `Nn1c(SCc2ccc(F)cc2)nnc1-c1ccccn1`, the cell number change amounted to 14.6%. The AC50 under setting [1] is 29.1 µM [rising, single point]. For the compound `CC(Oc1ccccc1)C(=O)Nc1ccc(F)c(S(=O)(=O)N2CCOCC2)c1` (stereo not given), the cell number change was -25.9%. Moreover, under setting [1], the AC50 was 7.31 µM [falling, partial curve, poor fit].

On to `CCCCNC(=O)c1ccccc1SCc1c(C)noc1C`, for which the cell number change turned out to be 8.84%. Under setting [1], the AC50 is 7.94 µM [rising, partial curve, poor fit]. Take `CC(=O)Nc1ccc(C2NC(=O)CCC2[N+](=O)[O-])cc1` (stereo not given): the cell number change is 2.13%. As to `CC(C)NC(=O)N(O)C1N(Cc2ccc3c(c2)OCO3)C(=S)SC1(C)C` (stereo not given), the cell number change was -51.9%. Besides, the AC50 under setting [2] is 29.1 µM [falling, single point]. The AC50 under setting [1] was 23.1 µM [falling, single point]. Take `CC(=O)Nc1ccc(NC(=O)CN2C(=O)COc3ccc(S(=O)(=O)N4CCCCC4)cc32)cc1`: the cell number change was -18%. As to `CCOC(=O)C1=C(C)NC(C)=C(C(=O)OCC)C1C1=COCCO1`, the AC50 is 4.61 µM [rising, single point] under setting [2] and 2.31 µM [rising, partial curve, poor fit] under setting [1]. As for `CC1CCC2(CC1)NC(=O)N(NC(=O)c1cccc(N(C)C)c1)C2=O` (stereo not given), the cell number change is -17.8%. For the same compound, the AC50 under setting [1] was 0.731 µM [rising, single point].

Consider `Nc1nc(CSC(=S)N2CCN(c3ccccc3)CC2)nc(Nc2ccccc2)n1`, for which the cell number change was found to be 4.78%. Under setting [1], the AC50 was 1.64 µM [rising, partial curve].

On to `COc1ccc(-c2n[nH]c(=S)n2-c2ccccc2C)cc1OC`, for which the cell number change was -11%.

`Cn1c(=O)[nH]c(=O)c2[nH]c(CN3CCN(C(=O)c4ccco4)CC3)nc21`: the cell number change was -87.4%. Also, the AC50 under setting [2] was 16.4 µM [falling, partial curve, poor fit].

Turning to `C=CCN(C(=O)CCc1ccccc1OC)c1nc(-c2ccc(S(C)(=O)=O)cc2)cs1`, the cell number change stood at 714%. The AC50 under setting [2] was 14.6 µM [rising, partial curve]. Also, under setting [1], the AC50 is 11.6 µM [falling, partial curve].

As for `O=C(/C=C/Nc1ccccc1)c1ccccc1`, the cell number change turned out to be 154%. Besides, under setting [2], the AC50 is 20.6 µM [rising, partial curve]. For the same compound, the AC50 under setting [1] was 1.64 µM [rising, partial curve].

As to `COc1ccc(-c2c[nH]c(=O)[nH]c2=O)cc1OC`, under setting [1], the AC50 is 0.00461 µM [rising, full curve, poor fit]. As to `Cc1cc(OC(=O)c2cc(Br)ccc2Cl)c([N+](=O)[O-])c(=O)[nH]1`, the cell number change came to 27.2%. For `CCCc1cc(=O)[nH]c(SCC(=O)N2CC3(C)CC2CC(C)(C)C3)n1` (stereo not given), the cell number change is -10.4%. Moreover, the AC50 under setting [2] is 0.0058 µM [falling, full curve, poor fit]. In addition, the AC50 under setting [1] was 0.00517 µM [falling, full curve, poor fit]. As for `COc1cccc(NC(=O)N2CCN(c3cccc(C)c3C)CC2)c1`, the cell number change came to 113%. The AC50 under setting [2] is 29.1 µM [rising, single point]. The AC50 under setting [1] is 29.1 µM [rising, single point]. `Cc1cc(CN(C)C(=O)c2ccc3nc(Cc4ccccc4F)oc3c2)n[nH]1`: the cell number change amounted to 29%. The AC50 under setting [1] was 4.11 µM [rising, partial curve].
